# Measurements reported in PubChem BioAssay AID463181 (University of Pittsburgh Molecular Library Screening Center, 2010).
# Some of the results follow. Further columns of the screen follow, without active or inactive calls.
# Test: L929 protection from caspase-blocker death, IC50 – L929 cells, duplicate IC50, dose response (AID 463181)
# Details: L929 zVAD necroptosis rescue, ATP luminescence, 24 h; inhibition of cell death; at 50 µM; stronger effect = higher value
structure (smiles),measurement,value
COC(=O)N1C(c2ccccc2)C1c1ccccc1 (stereo unspecified),inhibition,39.4%
